# Measured values from PubChem BioAssay AID1671190 (National Center for Advancing Translational Sciences (NCATS), 2021).
# The chains behind the UniProt entries cited, without tags or fusion partners. Where a name states a change or a piece, a line headed by the entry shows the natural chain unless it says otherwise.
# UniProt P18054: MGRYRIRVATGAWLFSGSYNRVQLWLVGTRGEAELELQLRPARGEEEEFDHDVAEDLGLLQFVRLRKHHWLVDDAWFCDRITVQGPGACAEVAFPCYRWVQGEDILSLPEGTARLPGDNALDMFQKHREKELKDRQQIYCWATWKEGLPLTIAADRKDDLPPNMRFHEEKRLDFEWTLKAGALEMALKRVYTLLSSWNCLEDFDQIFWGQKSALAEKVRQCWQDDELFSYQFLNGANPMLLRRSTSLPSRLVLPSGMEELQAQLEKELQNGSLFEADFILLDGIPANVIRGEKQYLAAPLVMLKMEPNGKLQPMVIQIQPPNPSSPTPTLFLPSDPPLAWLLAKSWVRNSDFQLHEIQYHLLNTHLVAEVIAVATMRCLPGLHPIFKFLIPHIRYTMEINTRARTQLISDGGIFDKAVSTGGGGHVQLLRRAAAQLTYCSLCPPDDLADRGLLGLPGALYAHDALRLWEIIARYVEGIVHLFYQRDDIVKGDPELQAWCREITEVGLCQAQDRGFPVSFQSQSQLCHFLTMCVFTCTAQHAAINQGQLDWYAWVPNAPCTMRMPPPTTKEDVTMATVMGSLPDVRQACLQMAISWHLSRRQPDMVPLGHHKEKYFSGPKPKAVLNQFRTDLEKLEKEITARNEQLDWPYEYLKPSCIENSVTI
# “And” between values parts separate entries of the source, which are not always exact repeats. Identical values can stand only once. The campaign covered roughly 580,000 compounds. About 6,100 (1.1%) were called active. The shares of active, inactive and inconclusive entries below differ from those in the screen. Calls follow the shape of the dose curve; as a rule, active = well fitted inhibition curve with a large enough effect; inconclusive = small, poorly fitted or top-dose-only effect, or another doubt; inactive = no such curve, though single readings can be large or run the other way. Potencies beside an inconclusive call are fits to weak or partial responses and may not hold up.
# Molecular target: Polyunsaturated fatty acid lipoxygenase ALOX12 (Homo sapiens) (UniProt P18054)
# Experiment: Primary qHTS assay for inhibitors of human arachidonate 12S-lipoxygenase (ALOX12): Round 2
# Conditions: purified 12hLO, xylenol orange hydroperoxide absorbance; activity change, negative = inhibition: at 108 µM (top of the series) unless noted
# Method in brief: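 Purified human 12hLO at 150 nM in 25 mM Hepes, 0.01% Triton X-100, pH 7.0, preincubated 15 min at room temperature with compound. Reaction started with 40 uM arachidonic acid, 30 min at room temperature. Hydroperoxide measured by Fe-xylenol orange, 573/405 nm absorbance ratio.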
# % is scaled to controls: 0 for no effect and ±100 for the full control effect; potency is read from the fitted curve at half-maximal effect.
Compound,Potency,"activity change, negative = inhibition"
O=C(c1cccc(F)c1)N1CCC2(CC1)CN(C(c1ccccc1)c1ccccc1)C2,inactive,
COc1cc(C2CC(=O)N3CN(c4cccc(C)c4)CSC3=C2C#N)ccc1O (stereo not drawn),active: 2 µM,
CCOc1ccccc1C(=O)NN1C(=O)CCC1=O,inactive,
COCc1ccc(C(=O)N2CC[C@@H](c3ccc4c(c3)OCO4)[C@H](O)C2)o1,"inconclusive: 89.1 µM [inhibitor, partial curve, poor fit]",
C[C@@H]1O[C@H](C2CC2)Cc2[nH]c(=S)[nH]c(=O)c21,"inconclusive: 35.5 µM [inhibitor, single point]",
COc1ccc(Oc2coc3cc(OCc4ccccc4)ccc3c2=O)cc1,inactive,
CCOc1cc(C2CC(=O)Nc3cc(OC)cc(OC)c32)ccc1OC(C)C (stereo not drawn),inactive,
O=C(Nc1cccc(Cl)c1)Nc1c(N2CCCC2)c2ccccc2oc1=O,"inconclusive: 50.1 µM [inhibitor, partial curve, poor fit]",
Cn1nnc(NC(=O)c2ccccc2F)n1,"inconclusive: 89.1 µM [inhibitor, single point]",
CN(C)/C=C/c1onc(-c2ccccc2Cl)c1C#N,"inconclusive: 50.1 µM [inhibitor, partial curve, poor fit]",
COc1ccc(/C=C(\NC(=O)c2ccccc2)C(=O)O)cc1,inactive,
NC(N)=Nc1ccc(C=C2C=Cc3ccccc32)cc1,"inconclusive: 50.1 µM [inhibitor, partial curve, poor fit]",
O=C(NCC(=O)N1CCCCC1)c1ccc(Br)o1,"inconclusive: 31.6 µM [inhibitor, partial curve, poor fit]",
Oc1c(C(c2ccccc2)N2CCN(c3ccccc3)CC2)sc2nc(-c3ccco3)nn12 (stereo not drawn),inactive,
Cc1c(C(=O)OCc2ccccc2C#N)oc2ccccc12,"inconclusive: 6.31 µM [inhibitor, full curve, poor fit]",
COCCCn1c(C(=O)NCCC2=CCCCC2)cc2c(=O)n3ccccc3nc21,inactive,
COc1ccc(C(=O)NC(=S)Nc2nnn(C)n2)cc1,"inconclusive: 3.16 µM [inhibitor, full curve, poor fit]",
COc1ccc(CCC(=O)Nc2sccc2C#N)cc1,"inconclusive: 100 µM [inhibitor, partial curve, poor fit]",
COC(=O)C1=COC(C)C2CN3CCc4c([nH]c5cc(OC)c(OC)cc45)C3CC12 (stereo not drawn),"inconclusive: 0.398 µM [inhibitor, full curve, poor fit]",
CN1CCN(CC#CCC2(O)c3ccccc3-c3ccccc32)CC1,"inconclusive: 31.6 µM [inhibitor, partial curve]",
Cc1cc(C(=O)OCC(=O)Nc2cccc(S(=O)(=O)N3CCOCC3)c2)c(C)o1,inactive,
CCC/C=C/c1ccc(CN2C(CC(C)C)C(=O)N(Cc3cn(Cc4ccco4)nn3)CCS2(=O)=O)cc1 (stereo not drawn),"inconclusive: 14.1 µM [inhibitor, full curve, poor fit]",
O=C1c2ccccc2S(=O)(=O)N1Cc1nc(-c2cc(Cl)ccc2Cl)cs1,inactive,

Compound,Potency,"activity change, negative = inhibition"
O=C(N/N=C\c1cccc(OC(=O)c2ccco2)c1)c1ccc2c(c1)OCO2,inactive,
CCCCn1c(=O)[nH]c(=O)c2c1nc(CNc1ccc(F)cc1C)n2CCC(C)C,"inconclusive: 44.7 µM [inhibitor, partial curve, poor fit]",
COc1ccc(C(=O)c2ccc(N3CCOCC3)cc2)c(OC)c1,"inconclusive: 25.1 µM [inhibitor, partial curve, poor fit]",
COC(=O)c1c(C)[nH]c(C(=O)C(C)OC(=O)c2c(F)cccc2F)c1C (stereo not drawn),"inconclusive: 1.78 µM [inhibitor, full curve, poor fit]",
Cc1cc(/C=N/NC(N)=S)c(C)n1-c1ccc(Cl)c(Cl)c1,"inconclusive: 44.7 µM [inhibitor, partial curve, poor fit]",
COc1cccc(-c2ccc(CN3CCCC(c4nc5ccc(C)cc5c(=O)[nH]4)C3)cc2)c1 (stereo not drawn),"inconclusive: 70.8 µM [inhibitor, partial curve, poor fit]",
Fc1ccc2nncc(SCc3ccccc3Cl)c2c1,inactive,
Cc1cccc(C(=O)NNC(=O)C(=O)NC(C)(C)C)c1,inactive,
CN1CCN(C(=O)CC[C@@H]2CNC(=O)[C@@H]3C[C@H](NC(=O)c4cccc(F)c4)CN23)CC1,"inconclusive: 100 µM [inhibitor, partial curve, poor fit]",
CCCCc1ncc(-c2c(-c3ccccc3)ncn2CCC2CCCN2C)[nH]1 (stereo not drawn),inactive,
O=C(CSc1ccccc1)N1CCN(c2ccccc2)CC1,"inconclusive: 3.98 µM [inhibitor, full curve, poor fit]",
Cc1cc(C)cc(-c2ccc(CN3CCCC(c4nc5ccc(F)cc5c(=O)[nH]4)C3)cc2)c1 (stereo not drawn),"inconclusive: 15.8 µM [inhibitor, full curve, poor fit]",
CCN(CC)C(=O)NC(c1ccc(C)c(F)c1)C(Cl)(Cl)Cl (stereo not drawn),"inconclusive: 3.98 µM [inhibitor, full curve, poor fit]",
CCCC(=O)N1CCN(c2ccc(NC(=S)NC(=O)c3cccc(C)c3)cc2)CC1,active: 15.8 µM,
O/N=C1/CCN(Cc2ccccc2)C1,inactive,
CC(C)Oc1ccccc1/C=N/O,"inconclusive: 50.1 µM [inhibitor, partial curve, poor fit]",
Cc1cccc(-c2ccc3c(c2)C(=O)N2CC[C@H](NC(=O)C4CCCC4)[C@H]2C(=O)N3)c1C,"inconclusive: 25.1 µM [inhibitor, full curve, poor fit]",
S=C1NC(c2cccs2)=CC(c2ccc(Br)cc2)N1 (stereo not drawn),active: 28.2 µM and active: 39.8 µM,
CC(=O)NC(NC(C)=O)C(Cl)(Cl)Cl,"inconclusive: 0.501 µM [inhibitor, full curve, poor fit]",
COc1ccccc1-n1c(C)c(C(C)=O)c2cc(O)ccc21,"inconclusive: 39.8 µM [inhibitor, partial curve, poor fit]",
COc1cccc(CNC(=O)CCS(=O)(=O)c2cccc3nsnc23)c1,inactive,
O=c1[nH]cccc1NS(=O)(=O)c1ccc(Cl)cc1,"inconclusive: 126 µM [inhibitor, single point]",
Cc1[nH]c2ccccc2c1C(=O)/C(C#N)=C\c1ccccc1Cl,"inconclusive: 11.2 µM [inhibitor, partial curve, poor fit]",

Compound,Potency,"activity change, negative = inhibition"
CCc1c(C)sc(NC(=O)C2CCC2)c1C#N,active: 12.6 µM,
COc1cc(OC)cc(C(=O)N[C@H](C(=O)OCC(=O)Nc2ccc3c(c2)OCO3)C(C)C)c1,"inconclusive: 31.6 µM [inhibitor, partial curve, poor fit]",
CC(OC(=O)CNC(=O)c1ccco1)C(=O)N(C)c1ccccc1 (stereo not drawn),inactive,
CCc1c(C)sc(NC(=O)c2cccc(Br)c2)c1C#N,"inconclusive: 39.8 µM [inhibitor, partial curve, poor fit]",
COc1ccc(-c2onc(C)c2C)cc1S(=O)(=O)NC1CCC(C)CC1 (stereo not drawn),"inconclusive: 63.1 µM [inhibitor, partial curve, poor fit]",
CCOc1ccc2ccccc2c1C(C(=O)O)N1CCN(CC2CC2)CC1 (stereo not drawn),"inconclusive: 1.12 µM [inhibitor, full curve]",
COc1ccc(N2C(=O)C(C)CS2(=O)=O)cc1S(=O)(=O)NCc1ccco1 (stereo not drawn),inactive,
Cc1ccc(OCC(=O)Nc2ccc(C(=O)OCc3cc(=O)n4c(C)csc4n3)cc2)cc1,"inconclusive: 50.1 µM [inhibitor, partial curve, poor fit]",
C=CCn1c(SCC(=O)Nc2cc(C)on2)nc2sc3c(c2c1=O)CCCC3,inactive,
CC(C)CNc1cc(N2CCCC2)ccc1[N+](=O)[O-],inactive,
COc1ccc(OCC(=O)NC2CCCN(Cc3ccc(Cl)cc3)C2)cc1 (stereo not drawn),active: 15.8 µM,
O=C(O)CSc1ccc(S(=O)(=O)N2CCCC2)cn1,"inconclusive: 0.562 µM [inhibitor, full curve]",
Cc1cc(-n2c(C)nc3ccccc3c2=O)ccc1NC(=O)c1cccc([N+](=O)[O-])c1,"inconclusive: 89.1 µM [inhibitor, partial curve, poor fit]",
CCN(Cc1nc(-c2cccc(C)c2)no1)C(=O)Nc1cccc2ccccc12,"inconclusive: 79.4 µM [inhibitor, single point]",
CCN(CC)S(=O)(=O)c1ccc(/C=C/C(=O)NC2CCCCC2)cc1,,inconclusive: -34.9% [inhibitor]
Cc1noc(C)c1-c1nccc(-n2ccnc2)n1,active: 44.7 µM,
O=C(/C=C/c1ccncc1)c1ccc(N2CCOCC2)cc1,"inconclusive: 7.08 µM [inhibitor, full curve]",
Cc1cccc(NC(=O)CSc2cc(C)c3ccccc3n2)c1,"inconclusive: 126 µM [inhibitor, partial curve, poor fit]",
COc1cc(C(=O)N/C(=C\c2cn(C)c3ccccc23)C(=O)N2CCN(C)CC2)cc(OC)c1OC,"inconclusive: 35.5 µM [inhibitor, partial curve, poor fit]",
COc1ccc(NS(=O)(=O)c2cc(NC(=O)c3cncc(Br)c3)ccc2OC)cc1,"inconclusive: 141 µM [inhibitor, single point]",
Cc1ccc(N=N/C(=C\O)C(=O)c2ccc(Cl)cc2)cc1,"inconclusive: 35.5 µM [inhibitor, partial curve]",
COc1ccc(N2CCN(C(=O)Nc3cccc(C(F)(F)F)c3)CC2)cc1,"inconclusive: 100 µM [inhibitor, partial curve, poor fit]",
